# Results reported in patent publication US20120252774A1, “STEROID TETROL SOLID STATE FORMS - 2” (priority 2010, published 2012).
# Some entries share one result that the patent states for a list of compounds. At least one compound was matched to its structure with a doubt left. Some compounds share one range, which may span the group rather than tell each member.
# Tested on: bone marrow-derived mast cells (BMMC)
# Experiment: mast cell stimulus-coupled degranulation (release of β-glucuronidase)
# Type: cell-based, Balb/C mice
# Conditions: similar protocols; inhibition of mast cell degranulation
# Protocol: In another protocol, a population of mast cells was cultivated from murine bone marrow as follows. Briefly, bone marrows from Balb/C mice were flushed from the femur using PBS and a 27 g needle. The cells were cultured in a mixture of ⅔ RPMI-1640 with 19% FBS and cells that secreted IL-3. The bone marrow cells were allowed to differentiate for 18-25 days in the IL-3-containing mixture before being used for experiments. Bone marrow cells cultured in this manner have a phenotype similar to mucosal mast cells and are referred to as bone marrow-derived mast cells (BMMC).
# The homogeneity of the in vitro propagated mast cells was checked by conventional flow cytometric techniques and staining for cell-type specific markers. Between days 14 and 21 of propagation, mature mast cells were harvested and prepared for the test cultures. The objective was to assess of the effect of compounds such as dehydroepiandrosterone on mast cell stimulus-coupled degranulation. Prepared mast cells were dispensed into test culture wells at a density of 1×10^7 cells/mL. In control cultures, mast cells were induced to degranulate after cross linking of IgE receptors with IgE antigen-antibody complexes. In parallel groups of cultures mast cells were preincubated dehydroepiandrosterone at various doses followed by activation using anti-IgE antibody. There was no detectable degranulation of mast cells as measured by release of β-glucuronidase from cytosolic storage granules of the cells in the absence of the stimulus. Introduction of anti-Ig-E receptor antibody to the cultures caused a significant release of β-glucuronidase.
row,Structure (SMILES),potency relative to dehydroepiandrosterone
1,"C[C@]12CC[C@H]3[C@@H]([C@@H](O)C=C4C[C@H](O)CC[C@@]43C)[C@@H]1C[C@@H](O)[C@@H]2O [androst-5-ene-3α,7β,16α,17β-tetrol]",10-1000 fold
2,"C[C@]12CC[C@H]3[C@@H]([C@@H](O)C=C4C[C@@H](O)CC[C@@]43C)[C@@H]1C[C@@H](O)[C@@H]2O [androst-5-ene-3β,7β,16α,17β-tetrol]",10-1000 fold
3,"C#C[C@]1(O)CC[C@H]2[C@@H]3[C@@H](O)C=C4C[C@@H](O)CC[C@]4(C)[C@H]3CC[C@@]21C [17α-ethynylandrost-5-ene-3β,7β,17β-triol]",10-1000 fold
